Taken from: PubChem BioAssay AID1259424 (University of Nebraska Medical Center, 2018)
Here is an unselected part of about 14,000 reagents tested. 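Higher correlation or smaller distance means closer resemblance to KSR1 loss; control wells, including KSR1 knockdowns, recur on many plates.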 Not all columns of the deposit are shown. Not stated in the record: the time to read-out.

Test: 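Find knockdowns that reproduce the expression shifts seen after KSR1 loss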 (primary screen)
Cells: human HCT116 colon cancer cells
Knock-down reagent: siRNA pool against human genes, 50 nM
Read-out: 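Six signature mRNAs by branched-DNA multiplex assay, scaled to two housekeeping genes and non-targeting median, log2; matched to mean KSR1 knockdown profile by Pearson correlation and euclidean distance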
Reading the numbers: mean correlation with KSR1 profile: higher = expression change more like KSR1 knockdown

For EIF4ENIF1 [SID364001449] the deposit lists mean correlation with KSR1 profile -0.551.
For IHH [SID364005229], the entry reads mean correlation with KSR1 profile 0.34.
After knock-down of BEGAIN [SID364001859], the record shows mean correlation with KSR1 profile -0.387.
Knock-down of ASS1 [SID363991389] came out at: mean correlation with KSR1 profile 0.324.
With knock-down of CNTF [SID363991932] the results were mean correlation with KSR1 profile 0.105.
Depletion of OXSR1 [SID363996045] came out at: mean correlation with KSR1 profile 0.235.
After knock-down of PDCD6 [SID363998356], the screen gave mean correlation with KSR1 profile -0.0269.
Depletion of RAI14 [SID363999583] came out at: mean correlation with KSR1 profile 0.298.
SFI1 [SID364005106] gave mean correlation with KSR1 profile -0.182.
SIRT2 [SID363998161] gave mean correlation with KSR1 profile -0.237.
Depletion of ATN1 [SID363993153] came out at: mean correlation with KSR1 profile 0.446.
Knock-down of PXMP4 [SID363997932] gave: mean correlation with KSR1 profile 0.309.
CRNN [SID363999938] showed mean correlation with KSR1 profile -0.0679.
Silencing of SAV1 [SID364002198] came out at: mean correlation with KSR1 profile -0.382.
After knock-down of FNTA [SID363993237] the results were mean correlation with KSR1 profile -0.639.
After knock-down of MRPS33 [SID363999844], the screen gave mean correlation with KSR1 profile -0.307.
After knock-down of YPEL3 [SID364003657] the results were mean correlation with KSR1 profile 0.518.
With knock-down of SFN [SID363996973] the results were mean correlation with KSR1 profile 0.108.
Depletion of GJA10 [SID364004090] resulted in: mean correlation with KSR1 profile 0.69.
With knock-down of MAPK8IP3 [SID363999320], the screen gave mean correlation with KSR1 profile 0.538.

Laid out differently: 4 of the entries above.
| gene | PubChem SID | mean correlation with KSR1 profile |
| --- | --- | --- |
| PXMP4 | SID363997932 | 0.309 |
| CRNN | SID363999938 | -0.0679 |
| SAV1 | SID364002198 | -0.382 |
| FNTA | SID363993237 | -0.639 |

Further reagents follow:
Depletion of COA7 [SID364002636] resulted in: mean correlation with KSR1 profile 0.568.
Against ZNF213 [SID363995220] the deposit lists mean correlation with KSR1 profile -0.391.
Knock-down of H2AC6 [SID363994605] resulted in: mean correlation with KSR1 profile 0.768.
With knock-down of ZNF770 [SID363998599] the results were mean correlation with KSR1 profile -0.0336.
F13B [SID363993206] scored mean correlation with KSR1 profile -0.715.
After knock-down of CPSF4 [SID363997474] the results were mean correlation with KSR1 profile -0.671.
Depletion of ARID3A [SID363996146] gave: mean correlation with KSR1 profile -0.922.
Silencing of ETNK1 [SID364001139] gave: mean correlation with KSR1 profile 0.459.
With knock-down of TMEM51 [SID364000713], the screen gave mean correlation with KSR1 profile -0.864.
Silencing of TTC27 [SID364000482] came out at: mean correlation with KSR1 profile -0.131.
COL25A1 [SID364004030] showed mean correlation with KSR1 profile 0.428.
SLC2A11 [SID364003457] gave mean correlation with KSR1 profile -0.346.
After knock-down of USP44 [SID364003803] the results were mean correlation with KSR1 profile -0.0088.
BCL11B [SID364002590] showed mean correlation with KSR1 profile -0.834.
ADAM28 [SID363998700] showed mean correlation with KSR1 profile 0.0732.
Depletion of PCDHGC5 [SID364001256] gave: mean correlation with KSR1 profile 0.247.
